PubChem BioAssay AID504744 | Drosophila RNAi Screening Center – 2011

- Assay: 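Identify dsRNAs that increase or decrease phospho-dAkt after insulin treatment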 (primary screen)
- Cells: Drosophila Kc167 cells
- Knock-down reagent: long dsRNA against Drosophila genes, 250 ng dsRNA per well of a 384-well plate
- Time to read-out: 3 days of knock-down, then overnight serum-free starvation before stimulation
- Treatment: bovine insulin at 387 nM for 10 minutes after 12 h without serum
- Measurement: 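In-cell antibody fluorescence for phospho-dAkt in each well over DNA-dye signal, with log2 residuals expressed as z-scores adjusted for cell count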
- Active means: 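Hit in the insulin screen when the two-replicate mean z-score is more extreme than plus or minus 2.5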
In all, the deposit lists about 23,000 reagents; this is an unselected part of those with a known target gene and a result. In the full data, 98 (0.43%) are marked active. 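Only hit calls are given; the phospho-dAkt signals, z-scores and hit direction were not deposited.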 Names joined by + are all predicted targets of the reagent.

| Target gene | dsRNA | Call |
| --- | --- | --- |
| CG2493 | DRSC02707 | inactive |
| CG8441 | DRSC07180 | inactive |
| SecS (Sec synthetase) | DRSC12222 | inactive |
| RtGEF (Rho-type guanine nucleotide exchange factor) | DRSC03604 | inactive |
| RtGEF (Rho-type guanine nucleotide exchange factor) | DRSC22207 | inactive |
| CG14566 | DRSC11727 | inactive |
| Agpat2 (1-Acylglycerol-3-phosphate O-acyltransferase 2) | DRSC03532 | inactive |
| Mabi (Mabiki) | DRSC02489 | inactive |
| CG15375 | DRSC18045 | inactive |
| CG17140 + CG17139 | DRSC02585 | inactive |
| CG17140 + CG17139 | DRSC02586 | inactive |
| Sodq (Sodesque) | DRSC15924 | inactive |
| CG1703 | DRSC19764 | inactive |
| mAChR-A (muscarinic Acetylcholine Receptor, A-type) | DRSC04702 | inactive |
| CG13300 | DRSC09974 | inactive |
| Cdc2rk (Cdc2-related kinase) | DRSC07590 | inactive |
| CG13954 | DRSC06442 | inactive |
| CG5347 | DRSC19942 | inactive |
| lectin-46Ca | DRSC06612 | inactive |
| CG12206 | DRSC17828 | inactive |
| MsrA (Methionine sulfoxide reductase A) | DRSC11159 | inactive |
| CG7889 | DRSC20066 | inactive |
| Cad74A (Cadherin 74A) | DRSC10636 | inactive |
| CG14515 | DRSC14867 | inactive |
| hrg (hiiragi) | DRSC07502 | inactive |
| Psf2 (Partner of Sld Five 2) | DRSC00516 | inactive |
| CG3746 | DRSC04412 | inactive |
| CG11883 | DRSC06094 | inactive |
| Or47a (Odorant receptor 47a) | DRSC07491 | inactive |
| Daao1 (D-amino acid oxidase 1) | DRSC06131 | inactive |
| Mettl14 (Methyltransferase like 14) | DRSC03073 | inactive |
| Set8 (SET domain containing 8) | DRSC15473 | inactive |
| CG18294 + 825-Oak + CG32214 + 2 more | DRSC22210 | inactive |
| CG10669 | DRSC14261 | inactive |
| Fas1 (Fasciclin 1) | DRSC16669 | inactive |
| cos (costa) | DRSC07598 | inactive |
| CG11788 | DRSC06084 | inactive |
| CG42697 | DRSC05740 | inactive |
| fat-spondin | DRSC07617 | inactive |
| lncRNA:CR32553 (long non-coding RNA:CR32553) | DRSC19229 | inactive |
| Rsod (Related to Sod) | DRSC15424 | inactive |
| CG13247 | DRSC11695 | inactive |

14 neighbouring reagents from above:
| Target gene | dsRNA | Call |
| --- | --- | --- |
| RtGEF (Rho-type guanine nucleotide exchange factor) | DRSC22207 | inactive |
| CG14566 | DRSC11727 | inactive |
| Agpat2 (1-Acylglycerol-3-phosphate O-acyltransferase 2) | DRSC03532 | inactive |
| Mabi (Mabiki) | DRSC02489 | inactive |
| CG15375 | DRSC18045 | inactive |
| CG17140 + CG17139 | DRSC02585 | inactive |
| CG17140 + CG17139 | DRSC02586 | inactive |
| Sodq (Sodesque) | DRSC15924 | inactive |
| CG1703 | DRSC19764 | inactive |
| mAChR-A (muscarinic Acetylcholine Receptor, A-type) | DRSC04702 | inactive |
| CG13300 | DRSC09974 | inactive |
| Cdc2rk (Cdc2-related kinase) | DRSC07590 | inactive |
| CG13954 | DRSC06442 | inactive |
| CG5347 | DRSC19942 | inactive |

Continued.
| Target gene | dsRNA | Call |
| --- | --- | --- |
| Chchd2 (Coiled-coil-helix-coiled-coil-helix domain containing 2) | DRSC19931 | inactive |
| CG14540 | DRSC14884 | inactive |
| CG5618 | DRSC11780 | inactive |
| CG18417 | DRSC10319 | inactive |
| CG9471 | DRSC16499 | inactive |
| CG31551 | DRSC12159 | inactive |
| CG31551 | DRSC22403 | inactive |
| CG4477 | DRSC10425 | inactive |
| CG10139 | DRSC05972 | inactive |
| CG6707 | DRSC10697 | inactive |
| Cyp309a2 (Cytochrome P450 309a2) | DRSC00526 | inactive |
| RpS10b (Ribosomal protein S10b) | DRSC19561 | inactive |
| lncRNA:CR31044 (long non-coding RNA::CR31044) | DRSC22451 | inactive |
| Arl2 (ADP ribosylation factor-like 2) | DRSC14117 | inactive |
| CG8543 | DRSC10990 | inactive |
| CG8543 | DRSC22809 | inactive |
| jar (jaguar) | DRSC16974 | inactive |
| Recs1 | DRSC16545 | inactive |
| CR32028 (retired record) | DRSC22959 | inactive |
| ARY (retired record) | DRSC20867 | inactive |
| NKAIN (Na,K-ATPase Interacting) | DRSC04531 | inactive |
| NKAIN (Na,K-ATPase Interacting) | DRSC22470 | inactive |
| CASK | DRSC14588 | inactive |
| CASK | DRSC16597 | inactive |
| CASK | DRSC16598 | inactive |
| CASK | DRSC21917 | inactive |
| Prdm13 (PR/SET domain 13) | DRSC09970 | inactive |
| CG15111 | DRSC21467 | inactive |
| CG3335 | DRSC10358 | inactive |
| CG17974 | DRSC04299 | inactive |
| CG17237 | DRSC00491 | inactive |
| CG14974 | DRSC08433 | inactive |
| Spn43Aa (Serpin 43Aa) | DRSC06117 | inactive |
| Dp1 (Dodeca-satellite-binding protein 1) | DRSC07403 | inactive |
| Sox21a | DRSC10819 | inactive |
| Clc (Clathrin light chain) | DRSC11116 | inactive |
| CG1724 | DRSC20548 | inactive |
| Usp39 (Ubiquitin specific protease 39) | DRSC20032 | inactive |
| CG42818 + Ca-Ma2d | DRSC01963 | inactive |
| CG31775 + CG42586 | DRSC22289 | inactive |
| CG9743 | DRSC16552 | inactive |
| CG11291 | DRSC04097 | inactive |
| CG33255 (retired record) + hpRNA:CR32205 + hpRNA:CR32207 | DRSC09617 | inactive |
| Fbl6 (F-box and leucine-rich repeat protein 6) | DRSC06335 | inactive |
| CG2839 | DRSC00544 | inactive |
| CG6565 | DRSC02970 | inactive |
| elm (ethanol sensitive with low memory) | DRSC12309 | inactive |
| pum (pumilio) | DRSC12722 | inactive |
| pum (pumilio) | DRSC12726 | inactive |
| pum (pumilio) | DRSC17037 | inactive |
| pum (pumilio) | DRSC17038 | inactive |
| pum (pumilio) | DRSC22758 | inactive |
| pum (pumilio) | DRSC22794 | inactive |
| CG17612 | DRSC00505 | inactive |
| Rab21 | DRSC20968 | inactive |
| neo (neyo) | DRSC16316 | inactive |
| CG33521 | DRSC17179 | inactive |
| CG33521 | DRSC17211 | inactive |
| CG33521 | DRSC22919 | inactive |
| Fatp3 (Fatty acid transport protein 3) | DRSC04366 | inactive |
| CG13239 | DRSC11694 | inactive |
| Npc2h (Niemann-Pick type C-2h) | DRSC14297 | inactive |
| CG6569 | DRSC16067 | inactive |
| CG12056 | DRSC17796 | inactive |
| Lamtor4 (Late endosomal/lysosomal adaptor, MAPK and MTOR activator 4) | DRSC08436 | inactive |
